# PubChem BioAssay AID686943, Drosophila RNAi Screening Center, 2013
# Aim: 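Fly genes whose loss alters ERK activation after insulin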 (primary screen)
# System: Drosophila S2R+ haemocyte-like cells expressing YFP-tagged ERK (Rolled)
# Knock-down reagent: long dsRNA against Drosophila genes
# Challenge: insulin stimulation versus unstimulated cells; dose and duration not given
# Measurement: 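Per-plate z-scores of phospho-ERK immunostaining normalised to YFP-tagged ERK, measured with and without insulin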
# Reading the numbers: replicate 1, z-score of dpERK with insulin and replicate 2, z-score of dpERK with insulin: higher = more active ERK per ERK-YFP after insulin; replicate 1, z-score of dpERK under basal conditions: higher = more basal active ERK per ERK-YFP; replicate 1, z-score of ERK-YFP with insulin: higher = more YFP-tagged ERK signal
# The screen tested about 23,000 reagents; below is a random part of those that have a named target and a result. 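Extra replicates exist only for a retested subset of genes; insulin dose and duration not given; both raised and lowered dpERK matter.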 A plus sign joins genes that one reagent is predicted to hit. Not stated in the record: the amount of reagent, the time to read-out.
Gene,amplicon,"replicate 1, z-score of dpERK with insulin","replicate 2, z-score of dpERK with insulin","replicate 1, z-score of dpERK under basal conditions","replicate 1, z-score of ERK-YFP with insulin"
CG34281,DRSC14807,-0.47,-0.25,-1.55,0.08
Gnpat (Glyceronephosphate O-acyltransferase),DRSC16960,1.41,0.19,1.45,-0.59
Nthl1 (Nth-like DNA glycosylase 1),DRSC03183,2.28,-0.01,-0.21,-2.04
Cyp4s3 (Cytochrome P450 4s3),DRSC20241,1.57,-0.11,-0.16,-0.6
Cyp4s3 (Cytochrome P450 4s3),DRSC22340,0.46,-0.07,0.69,0.2
CG6287,DRSC02947,-0.07,0.43,0.7,0.27
prel (preli-like),DRSC07271,-0.34,-0.66,0.59,0.1
CG31882,DRSC01084,0.63,0.91,0.9,0.52
NaPi-T (Na[+]-dependent inorganic phosphate cotransporter),DRSC07476,0.95,0.1,0.41,0.19
sta (stubarista),DRSC18838,-0.47,-1.5,-2.27,-0.67
Cyp9f2 (Cytochrome P450 9f2),DRSC16635,0.87,0.73,-1,1.52
CG17982,DRSC18143,0.67,0.53,-0.03,-0.11
CG5196,DRSC15735,0.24,0.34,0.18,0.25
Skadu,DRSC01490,0.18,0.33,0.02,0.28
CG16952,DRSC19759,0.22,-0.19,0.07,-0.5
Sgt1 (suppressor-of-G2-allele-of-skp1),DRSC16519,-0.48,-0.1,1.56,-0.81
Gycbeta100B (Guanylyl cyclase beta-subunit at 100B),DRSC14039,-0.02,0.08,-0.29,0.4
Gycbeta100B (Guanylyl cyclase beta-subunit at 100B),DRSC14040,-1.76,-0.74,-0.29,2.49
Gycbeta100B (Guanylyl cyclase beta-subunit at 100B),DRSC16691,0.03,1.83,0.04,-1.09
CG6044,DRSC04522,-0.04,-0.54,-1.22,2.02
Nup160 + RfC38,DRSC01997,-0.15,-0.76,0.28,-0.4
ThrRS (Threonyl-tRNA synthetase),DRSC02843,0.46,0.7,0.1,0.16
TM9SF4 (Transmembrane 9 superfamily protein member 4),DRSC01888,0.04,0.45,-0.11,0.59
CG12170,DRSC12199,1.07,0.35,-0.14,0.25
Pcmt (Protein-L-isoaspartate (D-aspartate) O-methyltransferase),DRSC12363,0.1,-0.33,1.52,-0.78

Next part, starting with the last 4 of the part before.
Gene,amplicon,"replicate 1, z-score of dpERK with insulin","replicate 2, z-score of dpERK with insulin","replicate 1, z-score of dpERK under basal conditions","replicate 1, z-score of ERK-YFP with insulin"
ThrRS (Threonyl-tRNA synthetase),DRSC02843,0.46,0.7,0.1,0.16
TM9SF4 (Transmembrane 9 superfamily protein member 4),DRSC01888,0.04,0.45,-0.11,0.59
CG12170,DRSC12199,1.07,0.35,-0.14,0.25
Pcmt (Protein-L-isoaspartate (D-aspartate) O-methyltransferase),DRSC12363,0.1,-0.33,1.52,-0.78
Tango1 (Transport and Golgi organization 1),DRSC02127,-0.47,0,-0.58,0.38
CG15888,DRSC15125,-0.61,0.38,0.94,0.45
MED7 (Mediator complex subunit 7),DRSC16059,1.27,2.04,-2.26,-2.51
mRpL27 (mitochondrial ribosomal protein L27),DRSC22568,-0.06,-0.62,0.21,0.87
omd (oocyte maintenance defects),DRSC16507,-1.93,-1.7,-0.62,-0.12
Doc2 (Dorsocross2),DRSC22716,0.12,0.21,-0.57,0.32
Ser7,DRSC18201,-0.65,-0.43,0.29,0.16
CG33777,DRSC08107,-0.59,-0.25,-1.34,0.1
CG15653,DRSC04244,-1.36,-0.54,0.81,0.8
JMJD6 (Jumonji domain containing 6),DRSC15787,-0.52,-0.77,0.3,-0.01
CG13806,DRSC08341,0.01,-0.65,-0.08,0.33
CG5746,DRSC15868,-1.53,-0.87,0.51,0.03
CG32199,DRSC09990,-0.63,0.25,-0.73,0.46
CG5235,DRSC10494,-0.86,-0.4,-0.31,0.93
